# Laboratory results published in patent US20250325682A1 (priority 2024, published 2025).
# Experiment: Fmoc solid-phase peptide synthesis; MBHA resin (0.58 mmol/g) for Boc; low loading ChemMatrix resin (0.22 mmol/g) for Fmoc; HBTU/DIPEA (Boc); DIC/Oxyma (Fmoc)
# Settings: whole synthesis, scale of the general procedure 0.1 mmol, TFA
substance,measurement,value
AcAKPNEGAIVEVALEGYYKDKLFDQRELRFEIGEGENLDLPYGLERAIQRM-NH2 (listed as Homo sapiens),outcome,Standard Fmoc synthesis of P50 was unsuccessful with coupling failing after about 15 amino acid residues
